{
  "source": "paper PMC5412686",
  "about": "(Biopharmaceutics & Drug Disposition, 2017)",
  "origin": "cited, not measured here",
  "key": {"[1]": {"conditions": "FaHIF, fasted human intestinal fluid; cited from earlier work"}, "[2]": {"conditions": "pH 7.4; cited from earlier work"}, "[3]": {"conditions": "Humans, ref Supplemental Table S2, cited from earlier work"}, "[4]": {"conditions": "Rats, ref Supplemental Table S2, cited from earlier work"}},
  "note": "Like-named read-outs stand apart in the source and are kept apart here.",
  "data": [
    {"smiles": "COC(=O)C1=C(C)NC(C)=C(C(=O)OC)C1c1ccccc1[N+](=O)[O-]", "note": "[Nifedipine]", "values": [
      {"measurement": "Solubility (Biorelevant media or Buffer, pH 7.4)", "setting": "[1]", "result": "0.041 (FaHIF) mg/ml"},
      {"measurement": "log D", "setting": "[2]", "result": 2.80},
      {"measurement": "CL", "setting": "[3]; i.v.", "result": 36, "unit": "L/h"},
      {"measurement": "F", "setting": "[3]; oral bioavailability", "result": 0.47},
      {"measurement": "Vss", "setting": "[3]", "result": 1.67, "unit": "L/kg"},
      {"measurement": "CL", "setting": "[4]; i.v.", "result": 8.7, "unit": "mL/min/kg"},
      {"measurement": "F", "setting": "[4]; oral bioavailability", "result": 0.46}
    ]}
  ]
}
